Construct, isoform or probe ends are uncertain for at least one entry. For part of these data: A negative result means that nothing was seen under these conditions. Tags and fusion partners may be left off the protein sequences shown.
How the values were obtained:
Experiment in all cases: activity assay
[1] = test system: T1, MG151-88; conditions: primer extension gel; protein translated in vitro; protein details: Strep, RT-RNase H trim; label: 5'-FAM primer; DNA:RNA hybrid
T1 sequence (limits assumed): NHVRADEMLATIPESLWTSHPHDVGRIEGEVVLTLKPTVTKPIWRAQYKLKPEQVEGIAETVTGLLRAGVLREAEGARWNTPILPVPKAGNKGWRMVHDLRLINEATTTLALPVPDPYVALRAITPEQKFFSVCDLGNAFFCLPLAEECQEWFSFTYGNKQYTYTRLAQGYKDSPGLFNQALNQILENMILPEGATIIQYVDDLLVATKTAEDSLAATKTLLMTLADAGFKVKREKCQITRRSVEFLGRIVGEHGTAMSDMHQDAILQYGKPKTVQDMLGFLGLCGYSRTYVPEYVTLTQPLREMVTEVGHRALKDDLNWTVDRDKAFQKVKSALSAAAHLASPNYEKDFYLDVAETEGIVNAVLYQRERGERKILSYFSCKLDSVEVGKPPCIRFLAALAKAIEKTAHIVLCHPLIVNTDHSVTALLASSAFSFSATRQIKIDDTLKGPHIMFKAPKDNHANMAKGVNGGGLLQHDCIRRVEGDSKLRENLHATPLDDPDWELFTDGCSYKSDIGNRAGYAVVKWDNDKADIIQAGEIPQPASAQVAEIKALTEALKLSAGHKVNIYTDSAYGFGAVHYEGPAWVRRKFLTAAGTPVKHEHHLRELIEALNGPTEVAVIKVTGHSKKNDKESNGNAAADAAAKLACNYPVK

[2] = test system: T2, MG153-2; conditions: primer extension gel; 3 mM MgCl2, 37 C; protein translated in vitro; protein details: N-terminal Strep; label: 5'-FAM primer; DNA:RNA hybrid
T2 sequence (limits assumed): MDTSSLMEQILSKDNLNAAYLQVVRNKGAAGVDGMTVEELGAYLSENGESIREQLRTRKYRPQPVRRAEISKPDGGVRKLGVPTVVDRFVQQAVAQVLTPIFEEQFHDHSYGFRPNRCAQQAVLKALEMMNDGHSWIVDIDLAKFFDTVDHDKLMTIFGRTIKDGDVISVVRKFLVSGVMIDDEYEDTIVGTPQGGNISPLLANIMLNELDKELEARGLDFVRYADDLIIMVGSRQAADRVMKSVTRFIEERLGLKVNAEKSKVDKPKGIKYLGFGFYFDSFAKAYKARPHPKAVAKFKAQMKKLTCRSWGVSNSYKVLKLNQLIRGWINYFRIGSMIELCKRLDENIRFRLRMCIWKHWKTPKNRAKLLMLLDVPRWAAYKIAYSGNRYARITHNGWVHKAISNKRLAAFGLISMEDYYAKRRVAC

[3] = test system: T3, MG153-36; conditions: primer extension gel; 3 mM MgCl2, 37 C; protein translated in vitro; protein details: N-terminal Strep; label: 5'-FAM primer; DNA:RNA hybrid
T3 sequence (limits assumed): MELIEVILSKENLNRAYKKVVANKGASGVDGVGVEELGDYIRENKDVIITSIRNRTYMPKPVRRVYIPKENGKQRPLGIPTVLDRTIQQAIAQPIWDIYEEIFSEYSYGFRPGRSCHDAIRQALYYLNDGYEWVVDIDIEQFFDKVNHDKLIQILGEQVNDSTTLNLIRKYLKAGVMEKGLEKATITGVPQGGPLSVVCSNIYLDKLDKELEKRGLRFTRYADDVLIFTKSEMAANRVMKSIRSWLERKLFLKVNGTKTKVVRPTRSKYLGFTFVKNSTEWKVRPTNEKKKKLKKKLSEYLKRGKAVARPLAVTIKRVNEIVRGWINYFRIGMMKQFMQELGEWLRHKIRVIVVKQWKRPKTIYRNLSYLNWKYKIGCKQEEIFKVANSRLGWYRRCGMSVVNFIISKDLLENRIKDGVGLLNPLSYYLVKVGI

[4] = test system: T4, MG153-41; conditions: primer extension gel; 3 mM MgCl2, 37 C; protein translated in vitro; protein details: N-terminal Strep; label: 5'-FAM primer; DNA:RNA hybrid
T4 sequence (limits assumed): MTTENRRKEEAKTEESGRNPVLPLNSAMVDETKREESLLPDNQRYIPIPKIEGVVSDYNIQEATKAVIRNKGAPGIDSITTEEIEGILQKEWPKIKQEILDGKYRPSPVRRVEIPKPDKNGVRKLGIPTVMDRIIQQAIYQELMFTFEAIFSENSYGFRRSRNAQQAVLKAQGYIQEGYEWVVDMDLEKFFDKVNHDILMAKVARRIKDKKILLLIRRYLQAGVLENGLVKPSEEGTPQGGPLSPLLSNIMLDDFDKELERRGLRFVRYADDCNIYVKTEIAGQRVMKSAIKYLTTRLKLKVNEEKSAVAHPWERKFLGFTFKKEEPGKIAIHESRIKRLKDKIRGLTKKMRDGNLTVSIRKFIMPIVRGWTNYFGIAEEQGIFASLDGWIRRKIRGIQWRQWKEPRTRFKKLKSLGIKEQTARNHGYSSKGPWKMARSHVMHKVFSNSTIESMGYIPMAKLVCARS

[5] = test system: T5, MG153-54; conditions: primer extension gel; 3 mM MgCl2, 37 C; protein translated in vitro; protein details: N-terminal Strep; label: 5'-FAM primer; DNA:RNA hybrid
T5 sequence (limits assumed): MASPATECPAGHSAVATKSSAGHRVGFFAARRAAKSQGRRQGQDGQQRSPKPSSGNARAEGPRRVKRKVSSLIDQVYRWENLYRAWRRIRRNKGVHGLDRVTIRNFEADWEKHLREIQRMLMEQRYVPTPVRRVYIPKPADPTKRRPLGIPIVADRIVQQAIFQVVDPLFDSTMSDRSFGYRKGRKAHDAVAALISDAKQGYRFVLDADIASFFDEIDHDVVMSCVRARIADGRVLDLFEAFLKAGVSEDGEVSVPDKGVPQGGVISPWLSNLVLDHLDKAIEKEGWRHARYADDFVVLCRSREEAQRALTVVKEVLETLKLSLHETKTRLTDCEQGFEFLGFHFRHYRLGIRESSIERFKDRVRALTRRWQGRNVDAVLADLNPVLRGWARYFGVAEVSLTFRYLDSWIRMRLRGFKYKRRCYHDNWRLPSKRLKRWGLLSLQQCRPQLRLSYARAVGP

[6] = test system: T6, MG157-1; conditions: tested, not listed as active; protein translated in vitro; protein details: N-terminal Strep; label: 5'-FAM primer; DNA:RNA hybrid
T6 sequence (limits assumed): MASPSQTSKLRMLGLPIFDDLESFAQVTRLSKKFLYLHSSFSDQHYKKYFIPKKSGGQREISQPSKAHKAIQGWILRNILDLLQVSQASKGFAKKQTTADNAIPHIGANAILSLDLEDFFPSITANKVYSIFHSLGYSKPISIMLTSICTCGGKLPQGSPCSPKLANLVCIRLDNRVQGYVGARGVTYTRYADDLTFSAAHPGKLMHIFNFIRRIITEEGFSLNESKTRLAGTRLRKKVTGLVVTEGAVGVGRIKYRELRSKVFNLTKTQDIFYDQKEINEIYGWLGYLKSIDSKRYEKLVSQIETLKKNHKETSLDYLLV

GGCAAACCGCCTCTCCCCGCGCGTTGGCCGATTCATTAATGCAGCTGGCACGACAGGTTTCCCGACTGGAAAGGAGACCCGGGCAGTGAGCGCAACGGGTCTCCAATTTAAGCCAGCCCCGACACCCGCCAACACCCGCTGACGCGCCCTGACGGGCTTGTCTGCTCCCGGCATCCGCTTACAGACAAGCTGTGACCGTCTC / GAGACGGTCACAGCTTGTCTG [202-nt RNA template annealed to DNA primer]
activity on this sequence [1]: active | activity on this sequence [2]: active | activity on this sequence [3]: active | activity on this sequence [4]: active | activity on this sequence [5]: active | activity on this sequence [6]: not active

— patent US20260193623
